A short description of this series: general procedure: Fmoc solid-phase peptide synthesis; NovaSyn TGR R resin ([…]); Oxyma/DIC (automated); DIC/HOBt (manual). Conditions: 220 nm.

One purity is given for all peptides; the source may state it once.

We go through three substances from publication PMC7052099 (2020).

As to “[K^4(Nα(Palm)-Lys-Nε(GFLGDLKVRKAAP-βAla-([^natTb]Tb-DOTA))),F^7,A^33,P^34,A^35]-NPY”, the “final HPLC purity” value (late stage modification step) is listed as more than 95%.

Regarding “[K^4(Nα(Palm)-Lys-Nε(GFLGDLKVRKAAP-βAla-([^natTb]Tb-DOTA))),F^7,P^34]-NPY [[^natTb]Tb-pb12]”, where the note is “late stage modification step”, the “final HPLC purity” value is more than 95%.

With “[K^4(Nα(Palm)-Lys-Nε(GFLGDLKVRKAAP-βAla-DOTA)),F^7,P^34]-NPY [pb12]”, the “final HPLC purity” value (whole synthesis, scale of the general procedure 15-µmol) is recorded as more than 95%.
